# In patent US9636418B2 (priority 2013, dated 2017):
# Amino acid sequences for entries named in this document (tags omitted).
# UniProt P35499, whole entry: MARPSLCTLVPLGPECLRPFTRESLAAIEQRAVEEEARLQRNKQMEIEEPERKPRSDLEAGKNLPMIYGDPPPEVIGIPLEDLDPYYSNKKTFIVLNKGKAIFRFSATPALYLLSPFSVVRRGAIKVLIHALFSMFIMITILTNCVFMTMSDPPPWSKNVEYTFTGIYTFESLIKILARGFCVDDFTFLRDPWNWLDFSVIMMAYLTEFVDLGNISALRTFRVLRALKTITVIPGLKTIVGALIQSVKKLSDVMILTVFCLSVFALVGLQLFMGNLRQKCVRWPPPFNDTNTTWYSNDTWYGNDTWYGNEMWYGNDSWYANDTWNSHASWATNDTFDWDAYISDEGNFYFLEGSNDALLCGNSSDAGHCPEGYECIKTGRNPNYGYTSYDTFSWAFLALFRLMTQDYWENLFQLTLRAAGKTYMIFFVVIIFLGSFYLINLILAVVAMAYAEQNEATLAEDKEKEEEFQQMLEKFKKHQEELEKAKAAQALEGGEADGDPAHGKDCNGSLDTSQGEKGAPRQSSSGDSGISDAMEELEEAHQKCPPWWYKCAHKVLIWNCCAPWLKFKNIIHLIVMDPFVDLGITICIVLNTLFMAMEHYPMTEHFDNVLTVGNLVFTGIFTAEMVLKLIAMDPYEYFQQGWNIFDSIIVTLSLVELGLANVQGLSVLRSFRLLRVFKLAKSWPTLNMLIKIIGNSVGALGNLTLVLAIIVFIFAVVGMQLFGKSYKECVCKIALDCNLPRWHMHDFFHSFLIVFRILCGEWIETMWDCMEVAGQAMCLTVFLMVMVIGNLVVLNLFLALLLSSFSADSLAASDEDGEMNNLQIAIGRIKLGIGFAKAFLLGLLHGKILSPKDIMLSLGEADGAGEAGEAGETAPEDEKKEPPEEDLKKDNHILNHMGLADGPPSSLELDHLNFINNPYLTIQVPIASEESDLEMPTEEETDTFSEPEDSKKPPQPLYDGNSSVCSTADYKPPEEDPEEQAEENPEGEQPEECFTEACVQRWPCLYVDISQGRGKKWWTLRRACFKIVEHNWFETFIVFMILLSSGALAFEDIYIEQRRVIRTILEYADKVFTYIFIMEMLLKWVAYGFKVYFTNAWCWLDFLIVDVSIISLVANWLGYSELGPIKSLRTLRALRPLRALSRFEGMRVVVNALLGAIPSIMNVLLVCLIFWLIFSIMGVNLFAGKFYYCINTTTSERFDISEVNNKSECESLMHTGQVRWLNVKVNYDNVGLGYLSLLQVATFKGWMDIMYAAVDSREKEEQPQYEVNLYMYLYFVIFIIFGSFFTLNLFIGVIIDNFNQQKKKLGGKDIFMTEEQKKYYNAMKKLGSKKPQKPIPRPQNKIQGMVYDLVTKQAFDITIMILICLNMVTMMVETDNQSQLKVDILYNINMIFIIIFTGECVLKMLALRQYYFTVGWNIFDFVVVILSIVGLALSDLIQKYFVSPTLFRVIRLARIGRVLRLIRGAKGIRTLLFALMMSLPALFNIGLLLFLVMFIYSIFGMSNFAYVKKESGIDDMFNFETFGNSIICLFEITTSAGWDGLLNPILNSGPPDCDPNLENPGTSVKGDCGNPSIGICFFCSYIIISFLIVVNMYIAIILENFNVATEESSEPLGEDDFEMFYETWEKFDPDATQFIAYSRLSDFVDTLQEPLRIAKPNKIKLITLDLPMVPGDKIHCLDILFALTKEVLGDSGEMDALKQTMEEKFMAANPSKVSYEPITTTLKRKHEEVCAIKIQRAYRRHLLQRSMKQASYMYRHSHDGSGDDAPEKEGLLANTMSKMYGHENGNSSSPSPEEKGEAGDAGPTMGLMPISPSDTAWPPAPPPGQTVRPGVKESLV
# Part of at least one peptide drawing is inferred or uncertain, most often the ends.
# Biological target: hNav1.4 (Homo sapiens, UniProt P35499)
# Format: cell-based
# Conditions: ratio of PX IC50 values
row,SMILES,Nav1.4/Nav1.7
1,CCCC[C@@H]1NC(=O)[C@H](Cc2c[nH]c3ccccc23)NC(=O)[C@H](CCCCN)NC(=O)[C@H](CCC(N)=O)NC(=O)[C@@H](NC(=O)[C@@H](N)Cc2cn(CCCOCCOCCOCCOCCOCCOCCOCCOCCOCCOCCN)nn2)CSSC[C@@H]2NC(=O)[C@@H]3CSSC[C@@H](C(=O)N[C@@H](CCCNC(=N)N)C(=O)N[C@@H](CCCCN)C(=O)N[C@H](C(=O)N[C@H](C(N)=O)[C@@H](C)CC)[C@@H](C)CC)NC(=O)[C@H](Cc4c[nH]c5ccccc45)NC(=O)[C@H](CC(C)C)NC(=O)[C@H](CCCCN)NC(=O)[C@H](CSSC[C@H](NC(=O)[C@H]([C@@H](C)O)NC(=O)[C@H](Cc4c[nH]c5ccccc45)NC1=O)C(=O)N[C@@H](CC(=O)O)C(=O)N[C@@H](CO)C(=O)N[C@@H](CCCCN)C(=O)N[C@@H](CCCNC(=N)N)C(=O)N[C@@H](C)C(=O)N3)NC(=O)[C@H](CCC(=O)O)NC(=O)[C@H](CC(C)C)NC(=O)CNC(=O)[C@H](CCC(=O)O)NC2=O [compound 407],85
2,CCCC[C@@H]1NC(=O)[C@H](Cc2c[nH]c3ccccc23)NC(=O)[C@H](CCCCN)NC(=O)[C@H](CCC(N)=O)NC(=O)[C@@H](NC(=O)[C@H](Cc2ccc(O)cc2)NC(=O)[C@@H](N)CC#N)CSSC[C@@H]2NC(=O)[C@@H]3CSSC[C@@H](C(=O)N[C@@H](CCCNC(=N)N)C(=O)N[C@@H](CCCCN)C(=O)N[C@@H](CCC(=O)O)C(=O)N[C@H](C(N)=O)[C@@H](C)CC)NC(=O)[C@H](Cc4c[nH]c5ccccc45)NC(=O)[C@H](CC(C)C)NC(=O)[C@H](CCCCN)NC(=O)[C@H](CSSC[C@H](NC(=O)[C@H]([C@@H](C)O)NC(=O)[C@H](Cc4c[nH]c5ccccc45)NC1=O)C(=O)N[C@@H](CC(=O)O)C(=O)N[C@@H](CO)C(=O)N[C@@H](CCCCN)C(=O)N[C@@H](CCCNC(=N)N)C(=O)N[C@@H](C)C(=O)N3)NC(=O)[C@H](CCCNC(=N)N)NC(=O)[C@H](CC(C)C)NC(=O)CNC(=O)[C@H](Cc1cn(CCCOCCOCCOCCOCCOCCOCCOCCOCCOCCOCCN)nn1)NC2=O [compound 443],31
